Experimental data: PubChem BioAssay AID720710 (VTT Finland, 2013)

Aim: 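Genes whose loss lowers DNA synthesis when an oncogene drives replication stress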 (primary screen)
System: human U-2 OS bone cancer cells, parental and a cyclin E (CCNE1) overexpressing line
Reagents: single siRNA against human genes, 1 µM siRNA in the printed spot mix
Time to read-out: 67 h
Conditions: half the arrays: hydroxyurea 2 mM for 16 h, then 3 h recovery; other arrays untreated
Measurement: 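DNA synthesis measured as imaged EdU uptake per nucleus (DAPI) at 67 h, normalised to subgrid median and given as z-score versus non-targeting controls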
Direction: EdU z-score, cyclin E line, hydroxyurea and EdU z-score, parental, hydroxyurea and EdU z-score, cyclin E line, untreated and EdU z-score, parental, untreated: higher = more DNA synthesis than non-targeting controls
The whole screen tested about 1,380 reagents; below is a part drawn at random. 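One array per condition without replicates; hydroxyurea arrays received 2 mM for 16 h plus 3 h recovery.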 The numbers tell different reagents against one gene apart. Reagent sequences are not shown.

The opening 3 records as a preview:
target	siRNA no.	EdU z-score, cyclin E line, hydroxyurea	EdU z-score, parental, hydroxyurea	EdU z-score, cyclin E line, untreated	EdU z-score, parental, untreated
NEK11	1	-1.94	-1.47	-2.94	-1.87
NEK11	2	1.26	1.47	0.277	-1.15
SIRT4	1	-0.345	-1.38	-1.04	-1.27

The listing, repeating the preview:
target	siRNA no.	EdU z-score, cyclin E line, hydroxyurea	EdU z-score, parental, hydroxyurea	EdU z-score, cyclin E line, untreated	EdU z-score, parental, untreated
NEK11	1	-1.94	-1.47	-2.94	-1.87
NEK11	2	1.26	1.47	0.277	-1.15
SIRT4	1	-0.345	-1.38	-1.04	-1.27
SIRT4	2	0.513	1.31	-0.712	-0.627
KLHL40	1	-1.48	-0.665	-0.762	-2.08
KLHL40	2	-0.688	0.591	0.202	-0.0793
H3-4	1	-0.895	-3.37	-1.37	0.861
H3-4	2	0.745	-0.236	1.65	1.95
SOX2	1	-2.79	-1.05	-0.82	-1.61
SOX2	2	1.66	1.32	0.249	0.16
XPA	1	-0.654	1.09	-3.45	-0.571
XPA	2	-0.582	1.17	-2.56	1.34
CBX8	1	-2.32	-4.04	-1.26	-2.74
CBX8	2	0.295	-0.514	-0.325	2.63
DFFB	1	-0.858	-3.83	0.122	-1.41
DFFB	2	0.309	1.42	2.17	0.316
H2BC14	1	-1.49	-4.12	-1.07	-0.986
H2BC14	2	-0.76	1.72	-0.513	-0.238
FHIT	1	-0.183	-0.276	-0.981	-0.382
FHIT	2	0.883	1.27	-0.229	-0.113
DKFZP686M0199	1	-0.154	-2.73	-3.58	-1.81
DKFZP686M0199	2	1.7	5.03	0.407	-0.0762
H2BC6	1	-0.665	-1.08	-1.64	-0.361
H2BC6	2	1.2	3.84	-0.444	0.474
RNF217	1	-0.486	-2.03	-3.5	-0.168
RNF217	2	0.477	0.628	-2.29	0.191
CDC6	1	-1.25	-2.14	-1.38	0.23
CDC6	2	1.6	-0.0692	0.793	0.736
SMARCA4	1	-1.34	-5.35	-0.633	-1.46
SMARCA4	2	-1.21	-2.77	-0.39	1.5
LOC730323	1	0.697	1.14	-1.56	-0.803
LOC730323	2	2.02	2.86	-1.04	0.393
NSD3	1	-0.906	-0.667	-2.33	-1.06
NSD3	2	1.23	2.4	-1.2	-0.401
GINS1	1	1.2	-6.84	-1.05	-0.555
GINS1	2	2.81	-2.08	-0.959	0.913
FANCM	1	-1.71	0.572	-1.6	-0.71
FANCM	2	-0.788	3.12	1.41	-0.709
TP73	1	-0.604	-1.78	-1.29	0.465
TP73	2	0.142	-0.629	-0.615	2.96
DNMT3B	1	-1.94	-0.458	-0.175	-1.67
DNMT3B	2	-0.254	1.44	0.484	2.78
WRN	1	0.475	-0.898	-0.799	0.938
WRN	2	1.48	2.16	-0.145	2.46
ARID1B	1	-2.26	-1.72	-2	-0.277
ARID1B	2	1.65	0.254	-0.361	0.0889
CDCA5	1	-2.45	-2.67	-0.118	-1.5
CDCA5	2	-1.51	-0.306	0.0498	0.618
CSNK1D	1	-1.52	-2.15	-2.84	0.0226
CSNK1D	2	-0.485	-1.73	-0.406	0.321
HMGB2	1	-0.565	-1.01	-0.639	-1.21
HMGB2	2	1.33	1.91	-0.537	0.0343
KMT5C	1	-1.02	-1.84	-1.26	-1.72
KMT5C	2	-0.801	2.06	0.559	-1.15
SIRT6	1	-2.39	-1.39	-0.633	-2.11
SIRT6	2	2.02	0.624	-0.628	0.6
GTF2H2	1	-0.647	-0.384	-4.85	-1.57
GTF2H2	2	-0.402	0.328	-0.453	-1.03
